# Results from the supplement of paper PMC10032668.
# Sequences of proteins named here, by UniProt entry; tags and fusion partners are left off.
# GNL1, P36915, UniProt P36915, whole entry: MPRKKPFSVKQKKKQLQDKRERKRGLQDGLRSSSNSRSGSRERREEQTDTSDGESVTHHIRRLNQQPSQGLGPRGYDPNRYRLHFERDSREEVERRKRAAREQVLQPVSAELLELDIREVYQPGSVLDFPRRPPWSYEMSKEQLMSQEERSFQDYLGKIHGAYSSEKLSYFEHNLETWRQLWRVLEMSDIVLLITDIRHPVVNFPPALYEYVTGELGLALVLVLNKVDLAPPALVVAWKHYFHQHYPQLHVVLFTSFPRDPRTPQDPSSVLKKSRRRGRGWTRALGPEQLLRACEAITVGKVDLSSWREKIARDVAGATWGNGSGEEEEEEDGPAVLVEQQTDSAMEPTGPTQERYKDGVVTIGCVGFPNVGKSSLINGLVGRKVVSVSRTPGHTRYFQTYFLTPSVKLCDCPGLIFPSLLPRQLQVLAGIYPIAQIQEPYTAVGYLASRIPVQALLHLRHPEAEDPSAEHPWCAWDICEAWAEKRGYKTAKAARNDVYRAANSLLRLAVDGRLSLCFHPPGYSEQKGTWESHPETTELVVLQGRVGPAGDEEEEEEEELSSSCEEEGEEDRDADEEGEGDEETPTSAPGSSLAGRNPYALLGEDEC
# CAPZB, P47756, UniProt P47756, whole entry: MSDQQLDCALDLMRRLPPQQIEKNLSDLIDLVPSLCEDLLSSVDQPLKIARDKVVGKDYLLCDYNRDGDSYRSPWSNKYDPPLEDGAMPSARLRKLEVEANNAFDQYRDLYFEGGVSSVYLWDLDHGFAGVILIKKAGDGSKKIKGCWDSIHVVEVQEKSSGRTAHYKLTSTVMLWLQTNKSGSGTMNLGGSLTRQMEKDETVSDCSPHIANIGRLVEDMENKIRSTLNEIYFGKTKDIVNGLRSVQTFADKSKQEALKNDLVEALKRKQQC
# PHAX, Q9H814, UniProt Q9H814, whole entry: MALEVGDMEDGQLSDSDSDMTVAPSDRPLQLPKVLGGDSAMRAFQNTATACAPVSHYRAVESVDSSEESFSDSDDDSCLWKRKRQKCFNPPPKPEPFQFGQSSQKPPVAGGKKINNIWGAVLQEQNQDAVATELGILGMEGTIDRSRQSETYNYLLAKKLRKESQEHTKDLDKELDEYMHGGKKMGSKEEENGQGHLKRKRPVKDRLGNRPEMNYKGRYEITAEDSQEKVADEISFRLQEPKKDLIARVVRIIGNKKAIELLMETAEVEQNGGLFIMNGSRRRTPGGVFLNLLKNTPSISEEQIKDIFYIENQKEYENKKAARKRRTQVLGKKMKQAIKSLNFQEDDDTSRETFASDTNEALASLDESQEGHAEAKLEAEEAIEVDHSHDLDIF
# SMN2, Q16637, UniProt Q16637, whole entry: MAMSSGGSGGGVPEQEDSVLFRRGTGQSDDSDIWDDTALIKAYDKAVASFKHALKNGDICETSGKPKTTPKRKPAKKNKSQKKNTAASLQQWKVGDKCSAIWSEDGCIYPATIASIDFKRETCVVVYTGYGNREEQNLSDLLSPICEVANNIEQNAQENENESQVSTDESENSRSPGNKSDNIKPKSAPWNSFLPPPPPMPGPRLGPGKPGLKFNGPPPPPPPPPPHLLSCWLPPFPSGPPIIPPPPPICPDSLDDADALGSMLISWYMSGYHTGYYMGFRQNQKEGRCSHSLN
# CASC3, O15234, UniProt O15234, whole entry: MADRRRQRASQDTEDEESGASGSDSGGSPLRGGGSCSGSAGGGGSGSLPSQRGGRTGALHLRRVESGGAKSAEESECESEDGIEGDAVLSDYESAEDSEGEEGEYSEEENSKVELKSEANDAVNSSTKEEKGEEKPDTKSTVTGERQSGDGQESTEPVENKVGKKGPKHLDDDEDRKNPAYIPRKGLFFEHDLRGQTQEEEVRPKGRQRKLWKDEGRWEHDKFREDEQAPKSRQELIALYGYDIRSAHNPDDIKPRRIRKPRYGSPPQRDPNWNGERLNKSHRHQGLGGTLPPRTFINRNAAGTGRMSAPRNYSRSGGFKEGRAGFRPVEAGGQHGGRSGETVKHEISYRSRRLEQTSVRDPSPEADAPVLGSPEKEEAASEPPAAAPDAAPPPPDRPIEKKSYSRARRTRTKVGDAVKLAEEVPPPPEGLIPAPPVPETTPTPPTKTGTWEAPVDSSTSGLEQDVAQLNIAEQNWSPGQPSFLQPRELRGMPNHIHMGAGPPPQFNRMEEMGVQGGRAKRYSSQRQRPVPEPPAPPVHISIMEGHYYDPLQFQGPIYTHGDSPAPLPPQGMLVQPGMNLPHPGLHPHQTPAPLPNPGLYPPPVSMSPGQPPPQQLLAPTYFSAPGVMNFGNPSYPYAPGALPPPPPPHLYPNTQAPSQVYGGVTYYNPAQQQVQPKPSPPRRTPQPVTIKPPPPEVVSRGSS
# TUBB8, Q3ZCM7, UniProt Q3ZCM7, whole entry: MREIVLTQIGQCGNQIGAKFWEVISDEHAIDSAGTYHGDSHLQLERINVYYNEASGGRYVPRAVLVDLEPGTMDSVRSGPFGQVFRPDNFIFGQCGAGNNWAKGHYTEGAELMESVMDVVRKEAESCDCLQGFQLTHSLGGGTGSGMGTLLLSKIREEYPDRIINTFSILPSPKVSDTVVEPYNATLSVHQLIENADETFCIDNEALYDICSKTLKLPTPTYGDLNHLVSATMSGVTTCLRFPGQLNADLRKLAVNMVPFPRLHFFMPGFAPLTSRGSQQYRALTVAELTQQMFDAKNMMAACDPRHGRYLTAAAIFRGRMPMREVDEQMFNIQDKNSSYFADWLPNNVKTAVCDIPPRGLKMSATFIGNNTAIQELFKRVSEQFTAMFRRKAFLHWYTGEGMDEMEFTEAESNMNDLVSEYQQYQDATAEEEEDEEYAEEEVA
# HIST1H1E, P10412, UniProt P10412, whole entry: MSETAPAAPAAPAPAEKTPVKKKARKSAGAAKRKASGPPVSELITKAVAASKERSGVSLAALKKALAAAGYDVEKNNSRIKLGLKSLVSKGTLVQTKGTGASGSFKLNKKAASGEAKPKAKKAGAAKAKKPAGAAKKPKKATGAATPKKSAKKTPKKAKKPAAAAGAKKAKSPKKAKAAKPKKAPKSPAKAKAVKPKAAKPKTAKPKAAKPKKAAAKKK
# STAT3, P40763, UniProt P40763, whole entry: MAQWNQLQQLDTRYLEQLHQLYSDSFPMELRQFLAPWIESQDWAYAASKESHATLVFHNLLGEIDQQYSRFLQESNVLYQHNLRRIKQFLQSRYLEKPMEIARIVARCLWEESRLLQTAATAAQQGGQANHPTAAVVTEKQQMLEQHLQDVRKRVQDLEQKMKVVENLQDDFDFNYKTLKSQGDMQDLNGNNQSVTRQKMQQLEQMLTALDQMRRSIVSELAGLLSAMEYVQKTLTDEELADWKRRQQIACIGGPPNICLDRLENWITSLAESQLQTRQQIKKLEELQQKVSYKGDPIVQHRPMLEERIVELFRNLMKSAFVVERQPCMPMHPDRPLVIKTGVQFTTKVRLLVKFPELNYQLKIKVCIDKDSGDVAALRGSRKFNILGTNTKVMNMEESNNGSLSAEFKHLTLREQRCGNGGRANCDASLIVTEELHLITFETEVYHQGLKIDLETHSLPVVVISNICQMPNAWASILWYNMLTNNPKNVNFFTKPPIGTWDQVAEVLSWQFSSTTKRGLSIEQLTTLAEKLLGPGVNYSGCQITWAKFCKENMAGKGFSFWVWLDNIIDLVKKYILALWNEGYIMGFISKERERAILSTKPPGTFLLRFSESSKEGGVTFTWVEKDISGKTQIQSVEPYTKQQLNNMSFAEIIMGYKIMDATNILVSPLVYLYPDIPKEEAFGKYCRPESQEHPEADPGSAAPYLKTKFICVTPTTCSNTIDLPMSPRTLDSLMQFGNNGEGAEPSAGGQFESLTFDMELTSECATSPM
# LARP4, Q71RC2, UniProt Q71RC2, whole entry: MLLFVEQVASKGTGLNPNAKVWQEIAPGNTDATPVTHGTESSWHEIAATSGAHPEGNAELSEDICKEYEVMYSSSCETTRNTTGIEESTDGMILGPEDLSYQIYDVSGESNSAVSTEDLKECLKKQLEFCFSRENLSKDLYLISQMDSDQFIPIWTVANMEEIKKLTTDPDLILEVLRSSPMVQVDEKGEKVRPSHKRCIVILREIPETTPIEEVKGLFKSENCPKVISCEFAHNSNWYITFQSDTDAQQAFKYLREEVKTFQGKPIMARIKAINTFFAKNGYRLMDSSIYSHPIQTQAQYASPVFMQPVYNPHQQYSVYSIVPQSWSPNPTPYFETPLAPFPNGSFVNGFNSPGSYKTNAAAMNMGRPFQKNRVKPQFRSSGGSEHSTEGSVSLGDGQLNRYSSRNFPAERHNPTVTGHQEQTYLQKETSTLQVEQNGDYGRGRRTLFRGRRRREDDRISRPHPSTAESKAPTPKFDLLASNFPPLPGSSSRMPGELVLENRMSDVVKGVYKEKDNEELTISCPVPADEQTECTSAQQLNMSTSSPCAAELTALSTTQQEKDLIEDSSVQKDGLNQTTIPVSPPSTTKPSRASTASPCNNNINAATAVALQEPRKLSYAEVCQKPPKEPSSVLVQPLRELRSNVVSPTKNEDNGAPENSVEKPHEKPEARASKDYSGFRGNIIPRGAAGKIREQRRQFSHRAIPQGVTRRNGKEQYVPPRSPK
# PSMC6, P62333, UniProt P62333, whole entry: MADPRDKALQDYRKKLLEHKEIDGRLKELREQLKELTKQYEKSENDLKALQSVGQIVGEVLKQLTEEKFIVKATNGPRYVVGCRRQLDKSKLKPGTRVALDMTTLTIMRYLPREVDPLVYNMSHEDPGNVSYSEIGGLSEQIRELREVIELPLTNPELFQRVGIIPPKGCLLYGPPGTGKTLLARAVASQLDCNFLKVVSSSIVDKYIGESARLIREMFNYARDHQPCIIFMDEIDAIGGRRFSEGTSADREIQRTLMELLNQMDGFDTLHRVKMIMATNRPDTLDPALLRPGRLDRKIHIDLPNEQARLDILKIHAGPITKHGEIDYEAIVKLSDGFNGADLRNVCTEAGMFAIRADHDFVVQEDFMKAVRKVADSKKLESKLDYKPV
# EIF3D, O15371, UniProt O15371, whole entry: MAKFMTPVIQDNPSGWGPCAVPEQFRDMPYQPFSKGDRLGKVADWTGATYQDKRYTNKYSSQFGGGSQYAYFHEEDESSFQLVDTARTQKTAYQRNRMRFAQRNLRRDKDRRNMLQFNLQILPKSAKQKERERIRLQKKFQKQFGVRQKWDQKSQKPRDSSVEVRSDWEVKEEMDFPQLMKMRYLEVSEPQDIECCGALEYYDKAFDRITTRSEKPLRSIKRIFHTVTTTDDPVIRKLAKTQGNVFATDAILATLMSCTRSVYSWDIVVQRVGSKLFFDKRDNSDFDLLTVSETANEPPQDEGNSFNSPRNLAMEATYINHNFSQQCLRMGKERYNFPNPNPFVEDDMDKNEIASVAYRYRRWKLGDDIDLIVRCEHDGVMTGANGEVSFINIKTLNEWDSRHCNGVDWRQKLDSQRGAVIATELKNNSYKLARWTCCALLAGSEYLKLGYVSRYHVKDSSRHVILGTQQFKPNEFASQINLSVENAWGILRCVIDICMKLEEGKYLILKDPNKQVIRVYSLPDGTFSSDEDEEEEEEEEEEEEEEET
# MAGOHB, Q96A72, UniProt Q96A72, whole entry: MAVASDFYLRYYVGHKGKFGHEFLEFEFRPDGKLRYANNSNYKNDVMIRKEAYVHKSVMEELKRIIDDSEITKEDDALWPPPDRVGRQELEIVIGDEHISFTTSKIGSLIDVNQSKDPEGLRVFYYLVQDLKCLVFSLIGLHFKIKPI
# MCM2, P49736, UniProt P49736, whole entry: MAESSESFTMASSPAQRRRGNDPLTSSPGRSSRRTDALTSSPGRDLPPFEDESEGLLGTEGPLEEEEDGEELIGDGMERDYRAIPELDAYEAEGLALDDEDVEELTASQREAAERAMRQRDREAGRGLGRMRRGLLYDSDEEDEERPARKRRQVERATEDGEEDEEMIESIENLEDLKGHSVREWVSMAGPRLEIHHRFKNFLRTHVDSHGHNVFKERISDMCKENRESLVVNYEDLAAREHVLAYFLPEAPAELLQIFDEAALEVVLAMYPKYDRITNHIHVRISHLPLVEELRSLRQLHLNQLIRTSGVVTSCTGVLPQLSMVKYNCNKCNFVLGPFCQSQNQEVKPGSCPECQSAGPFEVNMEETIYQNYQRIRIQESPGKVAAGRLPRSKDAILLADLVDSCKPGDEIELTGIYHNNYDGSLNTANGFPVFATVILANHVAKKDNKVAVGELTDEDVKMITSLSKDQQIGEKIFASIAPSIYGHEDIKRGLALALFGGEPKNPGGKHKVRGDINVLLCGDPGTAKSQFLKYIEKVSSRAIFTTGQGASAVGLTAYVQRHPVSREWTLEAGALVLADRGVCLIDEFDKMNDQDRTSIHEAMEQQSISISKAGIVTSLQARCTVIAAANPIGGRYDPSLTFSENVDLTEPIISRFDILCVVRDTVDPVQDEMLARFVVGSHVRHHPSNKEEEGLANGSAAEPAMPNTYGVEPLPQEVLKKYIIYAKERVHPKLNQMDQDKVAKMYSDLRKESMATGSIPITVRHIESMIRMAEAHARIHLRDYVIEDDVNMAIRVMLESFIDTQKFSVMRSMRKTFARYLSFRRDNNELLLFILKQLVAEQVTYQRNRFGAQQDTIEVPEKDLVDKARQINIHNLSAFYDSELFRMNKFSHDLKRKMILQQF
# The other results are listed elsewhere or left out. The list holds hits alone, and they repeat only in part.
# Assays:
# Test in all cases: PRISMA enrichment of interactor (LFQ) in peptide spot vs all other peptide spots (log2 fold change); higher = stronger / more specific binding of the interactor to the peptide
# [1] = target: CAND2, O75155
# Procedure: (§1)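 PRISMA: 15-aa overlapping tiles (offset 8 aa) of 60 microproteins, plus SOS1/GLUT1 control peptides, were spot-synthesized on cellulose membranes in triplicate. Membranes were incubated with benzonase-treated HEK293T lysate, and bound proteins were identified by LC-MS/MS with LFQ. Enrichment is the log2 fold change of each protein in one spot versus all other spots. Only interactors passing the significance cutoff are listed.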
# [2] = target: CSNK1A1, P48729
# Procedure: as §1
# [3] = target: DARS2, Q6PI48
# Procedure: as §1
# [4] = target: DDX42, Q86XP3
# Procedure: as §1
# [5] = target: EEF1B2, P24534
# Procedure: as §1
# [6] = target: FGF2, P09038
# Procedure: as §1
# [7] = target: GNL1, P36915
# Procedure: as §1
# [8] = target: MRGBP, Q9NV56
# Procedure: as §1
# [9] = target: MRPL27, Q9P0M9
# Procedure: as §1
# [10] = target: TTC27, Q6P3X3
# Procedure: as §1
# [11] = target: CAPZB, P47756
# Procedure: as §1
# [12] = target: DCAF7, P61962
# Procedure: as §1
# [13] = target: EARS2, Q5JPH6
# Procedure: as §1
# [14] = target: FAM98A, Q8NCA5
# Procedure: as §1
# [15] = target: INTS12, Q96CB8
# Procedure: as §1
# [16] = target: PHAX, Q9H814
# Procedure: as §1
# [17] = target: PHF6, Q8IWS0
# Procedure: as §1
# [18] = target: PPIL2, Q13356
# Procedure: as §1
# [19] = target: PRKCSH, P14314
# Procedure: as §1
# [20] = target: RANBP2, P49792
# Procedure: as §1
# [21] = target: RBBP4, Q09028
# Procedure: as §1
# [22] = target: RNF2, Q99496
# Procedure: as §1
# [23] = target: SAP18, O00422
# Procedure: as §1
# [24] = target: SMN2, Q16637
# Procedure: as §1
# [25] = target: STRBP, Q96SI9
# Procedure: as §1
# [26] = target: TELO2, Q9Y4R8
# Procedure: as §1
# [27] = target: TIAL1, Q01085
# Procedure: as §1
# [28] = target: USP15, Q9Y4E8
# Procedure: as §1
# [29] = target: VARS, P26640
# Procedure: as §1
# [30] = target: ZNF512, Q96ME7
# Procedure: as §1
# [31] = target: CASC3, O15234
# Procedure: as §1
# [32] = target: COQ8A, Q8NI60
# Procedure: as §1
# [33] = target: MAT1A, Q00266
# Procedure: as §1
# [34] = target: MED23, Q9ULK4
# Procedure: as §1
# [35] = target: NR3C1, P04150
# Procedure: as §1
# [36] = target: TMEM256-PLSCR3
# Procedure: as §1
# [37] = target: TP53, P04637
# Procedure: as §1
# [38] = target: ODF2, Q5BJF6
# Procedure: as §1
# [39] = target: RCN2, Q14257
# Procedure: as §1
# [40] = target: TUBB8, Q3ZCM7
# Procedure: as §1
# [41] = target: MACF1
# Procedure: as §1
# [42] = target: NEFM, P07197
# Procedure: as §1
# [43] = target: PWP1, Q13610
# Procedure: as §1
# [44] = target: TOMM70, O94826
# Procedure: as §1
# [45] = target: VTA1, Q9NP79
# Procedure: as §1
# [46] = target: CBX4, O00257
# Procedure: as §1
# [47] = target: COPG2, Q9UBF2
# Procedure: as §1
# [48] = target: DDX19A, Q9NUU7
# Procedure: as §1
# [49] = target: GYG1, P46976
# Procedure: as §1
# [50] = target: HIST1H1E, P10412
# Procedure: as §1
# [51] = target: MKKS, Q9NPJ1
# Procedure: as §1
# [52] = target: STAT3, P40763
# Procedure: as §1
# [53] = target: CCAR1, Q8IX12
# Procedure: as §1
# [54] = target: CCNT1, O60563
# Procedure: as §1
# [55] = target: DLGAP5, Q15398
# Procedure: as §1
# [56] = target: ELOVL5, Q9NYP7
# Procedure: as §1
# [57] = target: FARSA, Q9Y285
# Procedure: as §1
# [58] = target: GTPBP6, O43824
# Procedure: as §1
# [59] = target: HK2, P52789
# Procedure: as §1
# [60] = target: IQCB1, Q15051
# Procedure: as §1
# [61] = target: LARP4, Q71RC2
# Procedure: as §1
# [62] = target: MRPS14, O60783
# Procedure: as §1
# [63] = target: PRDX4, Q13162
# Procedure: as §1
# [64] = target: PSMC6, P62333
# Procedure: as §1
# [65] = target: RPUSD3, Q6P087
# Procedure: as §1
# [66] = target: SAMM50, Q9Y512
# Procedure: as §1
# [67] = target: SSBP1, Q04837
# Procedure: as §1
# [68] = target: ZBTB10, Q96DT7
# Procedure: as §1
# [69] = target: ZNF638, Q14966
# Procedure: as §1
# [70] = target: CCDC124, Q96CT7
# Procedure: as §1
# [71] = target: CTNND1, O60716
# Procedure: as §1
# [72] = target: DDOST, P39656
# Procedure: as §1
# [73] = target: DDX27, Q96GQ7
# Procedure: as §1
# [74] = target: DNAJB6, O75190
# Procedure: as §1
# [75] = target: EHD4, Q9H223
# Procedure: as §1
# [76] = target: EIF3D, O15371
# Procedure: as §1
# [77] = target: HSPH1, Q92598
# Procedure: as §1
# [78] = target: LARP1, Q6PKG0
# Procedure: as §1
# [79] = target: MAGOHB, Q96A72
# Procedure: as §1
# [80] = target: MCM2, P49736
# Procedure: as §1
# [81] = target: NSA2, O95478
# Procedure: as §1
# [82] = target: POLR2G, P62487
# Procedure: as §1
# [83] = target: PSMD11, O00231
# Procedure: as §1
# [84] = target: RRS1, Q15050
# Procedure: as §1
# [85] = target: STRIP1, Q5VSL9
# Procedure: as §1
# [86] = target: TSR1, Q2NL82
# Procedure: as §1
binder,measurement,setting,value
FQNVFVLHMTLLWKK [RP11-432J24.5_2],PRISMA enrichment of interactor (log2),[1],5.46
same,PRISMA enrichment of interactor (log2),[2],6.6
same,PRISMA enrichment of interactor (log2),[3],4.41
same,PRISMA enrichment of interactor (log2),[4],7.3
same,PRISMA enrichment of interactor (log2),[5],5.21
same,PRISMA enrichment of interactor (log2),[6],3.79
same,PRISMA enrichment of interactor (log2),[7],4.71
same,PRISMA enrichment of interactor (log2),[8],4.35
same,PRISMA enrichment of interactor (log2),[9],7.36
same,PRISMA enrichment of interactor (log2),[10],4.66
GIDYSKKEFRGTAEN [LINC01560],PRISMA enrichment of interactor (log2),[11],4.7
same,PRISMA enrichment of interactor (log2),[12],8.69
same,PRISMA enrichment of interactor (log2),[13],7.35
same,PRISMA enrichment of interactor (log2),[14],5.01
same,PRISMA enrichment of interactor (log2),[15],4.07
same,PRISMA enrichment of interactor (log2),[16],4.74
same,PRISMA enrichment of interactor (log2),[17],5.75
same,PRISMA enrichment of interactor (log2),[18],4.75
same,PRISMA enrichment of interactor (log2),[19],4.71
same,PRISMA enrichment of interactor (log2),[20],7.36
same,PRISMA enrichment of interactor (log2),[21],4.48
same,PRISMA enrichment of interactor (log2),[22],4.06
same,PRISMA enrichment of interactor (log2),[23],6.87
same,PRISMA enrichment of interactor (log2),[24],8.68
same,PRISMA enrichment of interactor (log2),[25],7.17
same,PRISMA enrichment of interactor (log2),[26],5.08
same,PRISMA enrichment of interactor (log2),[27],4.51
same,PRISMA enrichment of interactor (log2),[28],3.98
same,PRISMA enrichment of interactor (log2),[29],4.35
same,PRISMA enrichment of interactor (log2),[30],5.12
KQSVWKWRNGLPCMS,PRISMA enrichment of interactor (log2),[31],4.28
same,PRISMA enrichment of interactor (log2),[32],4.93
same,PRISMA enrichment of interactor (log2),[33],4.14
same,PRISMA enrichment of interactor (log2),[34],6
same,PRISMA enrichment of interactor (log2),[35],4.73
same,PRISMA enrichment of interactor (log2),[36],4.44
same,PRISMA enrichment of interactor (log2),[37],4.38
RTWSKNSHCHSYRLS [PEX2],PRISMA enrichment of interactor (log2),[31],5.35
same,PRISMA enrichment of interactor (log2),[38],10.4
same,PRISMA enrichment of interactor (log2),[39],5.29
same,PRISMA enrichment of interactor (log2),[40],4.68
SEAGTGFCFNTKRNR [MRPL33],PRISMA enrichment of interactor (log2),[31],6.64
same,PRISMA enrichment of interactor (log2),[41],6
same,PRISMA enrichment of interactor (log2),[42],5.06
same,PRISMA enrichment of interactor (log2),[43],5.38
same,PRISMA enrichment of interactor (log2),[44],7.52
same,PRISMA enrichment of interactor (log2),[45],6.89
FQIPKNDDIPEQDSL [MKKS],PRISMA enrichment of interactor (log2),[46],5.02
same,PRISMA enrichment of interactor (log2),[47],8.55
same,PRISMA enrichment of interactor (log2),[48],6.16
same,PRISMA enrichment of interactor (log2),[49],7.21
same,PRISMA enrichment of interactor (log2),[50],6.86
same,PRISMA enrichment of interactor (log2),[51],4.44
same,PRISMA enrichment of interactor (log2),[52],4.75
DTARSALQPDLLARR [PVT1],PRISMA enrichment of interactor (log2),[53],5.13
same,PRISMA enrichment of interactor (log2),[54],4.6
same,PRISMA enrichment of interactor (log2),[55],4.87
same,PRISMA enrichment of interactor (log2),[56],5.37
same,PRISMA enrichment of interactor (log2),[57],7.54
same,PRISMA enrichment of interactor (log2),[58],7.08
same,PRISMA enrichment of interactor (log2),[59],8.44
same,PRISMA enrichment of interactor (log2),[60],7.97
same,PRISMA enrichment of interactor (log2),[61],5.55
same,PRISMA enrichment of interactor (log2),[62],5.98
same,PRISMA enrichment of interactor (log2),[63],8.37
same,PRISMA enrichment of interactor (log2),[64],5.96
same,PRISMA enrichment of interactor (log2),[65],5.08
same,PRISMA enrichment of interactor (log2),[66],4.86
same,PRISMA enrichment of interactor (log2),[67],8.99
same,PRISMA enrichment of interactor (log2),[68],4.89
same,PRISMA enrichment of interactor (log2),[69],6.33
RLRYGGLANNLAGVF,PRISMA enrichment of interactor (log2),[70],5.52
same,PRISMA enrichment of interactor (log2),[71],4.51
same,PRISMA enrichment of interactor (log2),[72],4.68
same,PRISMA enrichment of interactor (log2),[73],5.13
same,PRISMA enrichment of interactor (log2),[74],7.5
same,PRISMA enrichment of interactor (log2),[75],5.25
same,PRISMA enrichment of interactor (log2),[76],5.43
same,PRISMA enrichment of interactor (log2),[77],5.11
same,PRISMA enrichment of interactor (log2),[78],5.55
same,PRISMA enrichment of interactor (log2),[79],4.19
same,PRISMA enrichment of interactor (log2),[80],5.68
same,PRISMA enrichment of interactor (log2),[81],4.74
same,PRISMA enrichment of interactor (log2),[82],4.86
same,PRISMA enrichment of interactor (log2),[83],5.61
same,PRISMA enrichment of interactor (log2),[84],5.23
same,PRISMA enrichment of interactor (log2),[85],5.62
same,PRISMA enrichment of interactor (log2),[86],6.16

# Already shown: an excerpt of the list.
binder,measurement,setting,value
GIDYSKKEFRGTAEN [LINC01560],PRISMA enrichment of interactor (log2),[25],7.17
same,PRISMA enrichment of interactor (log2),[26],5.08
same,PRISMA enrichment of interactor (log2),[27],4.51
